# Experimental data: patent US11191272B2, “Oxadiazole compound or salts thereof, agricultural/horticultural fungicide containing said compound, and method for using same” (NIHON NOHYAKU CO., LTD., priority 2017, dated 2021)
# Some results were stated once for a whole list of compounds, not compound by compound. Some ranges recur; such a range may be that of the whole group of compounds.
# Tested on: soybean rust (Phakopsora pachyrhizi)
# Test: Fungicidal Efficacy Test for Soybean Rust
# Type: in vivo
# Conditions: treatment concentration of 50 ppm; foliage spray on potted soybeans (Enrei, 2-leaf stage) before spore inoculation; assessed after about 10 days in greenhouse
compound,measurement,value
"CCCC(=O)N(C)C(OC)c1ccc(-c2noc(C(F)(F)F)n2)cc1 (stereo not shown) [Compound No. 1-19, N-(methoxy{4-[5-(trifluoromethyl)-1,2,4-oxazole-3-ylphenyl]methyl})-N-methylbutylamine]",control value (assessment criteria 0-10),8 (Control value 80-89%)
